Some test systems named below: LETM2 (human); LGALS3 (human); LILRB1 (human); LIMD1 (human); LMX1A (human); LOC113386 (human); LOC124446 (human); LOC144631 (human); LOC149267 (human).
Assay in all cases: protein microarray (ProtoArray v5.0), streptavidin-Alexa Fluor 647
Conditions in all cases: 3'-biotin; 20 mM Tris (pH 7.5), 5 mM MgCl2, 100 mM KCl, 0.1% Tween-20, A/T-rich and random oligonucleotide blockers; temperature not stated; high values mean tight binding

The target of a further assay is T1, LIMS2 (UniProt Q7Z4I7).
T1 sequence: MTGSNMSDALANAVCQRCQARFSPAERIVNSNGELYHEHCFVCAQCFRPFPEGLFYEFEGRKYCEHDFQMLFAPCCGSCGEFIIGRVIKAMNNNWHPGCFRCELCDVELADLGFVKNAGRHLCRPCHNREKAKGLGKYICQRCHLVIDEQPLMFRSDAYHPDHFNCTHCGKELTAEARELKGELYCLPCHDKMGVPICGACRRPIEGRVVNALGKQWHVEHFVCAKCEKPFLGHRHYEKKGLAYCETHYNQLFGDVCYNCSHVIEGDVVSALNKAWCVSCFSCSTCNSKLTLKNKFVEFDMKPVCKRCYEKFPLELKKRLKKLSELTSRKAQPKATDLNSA

Several values for one entry are separate records, joined by “and”; a condition that tells them apart may be missing. Equal values may be shown once. The list shows a part of the results. For some of these results: Construct or isoform of the protein are uncertain.

Turning to “GGGGACAGGGGTATGGGGAGGGG [G4-3 biotinylated (CtG)]”, the binding signal is -0.334 z-score in the assay with LETM2 (human); -0.324 z-score and -0.331 z-score in the assay on LGALS3 (human); -0.322 z-score with LILRB1 (human); -0.333 z-score in the assay with LIMD1 (human); 3.01 z-score with LIMS2; -0.34 z-score in the assay on LMX1A (human). Moreover, the binding signal with LOC113386 (human) was -0.318 z-score; in the assay on LOC124446 (human) it was -0.307 z-score; in the assay on LOC144631 (human), -0.318 z-score; in the assay on LOC149267 (human), -0.308 z-score.

Source of the values: publication PMC5996148.
